Reference: PubChem BioAssay AID504744 (Drosophila RNAi Screening Center, 2011)
Aim: 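Identify dsRNAs that increase or decrease phospho-dAkt after insulin treatment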 (primary screen). System: Drosophila Kc167 cells. Reagent: long dsRNA against Drosophila genes, 250 ng dsRNA per well of a 384-well plate. Duration: 3 days of knock-down, then overnight serum-free starvation before stimulation. Challenge: bovine insulin at 387 nM for 10 minutes after 12 h without serum. Detection: 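Per-well phospho-dAkt level from an in-cell fluorescent antibody stain, divided by a DNA-dye signal; log2 residuals turned into z-scores that take cell number into account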. Hit rule: 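Hit in the insulin screen when the two-replicate mean z-score is more extreme than plus or minus 2.5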.
The deposit covers about 23,000 reagents; below is a random part of those that have a named target and a result. Of all reagents, 98 (0.43%) were called active. 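Only hit calls are given; the phospho-dAkt signals, z-scores and hit direction were not deposited.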 A plus sign joins genes that one reagent is predicted to hit. Reagent sequences are not shown.

| target | amplicon | Call |
| --- | --- | --- |
| MagR (Magnetic receptor) | DRSC20092 | inactive |
| Fancd2 | DRSC15208 | inactive |
| Fancd2 | DRSC22763 | inactive |
| kermit | DRSC06074 | inactive |
| CG13102 | DRSC02202 | inactive |
| BomT3 (Bomanin Tailed 3) | DRSC13537 | inactive |
| BomT3 (Bomanin Tailed 3) | DRSC15871 | inactive |
| CG11293 (retired record) | DRSC04098 | inactive |
| Fpgs1 (Folylpolyglutamate synthase 1) | DRSC19857 | inactive |
| CG42713 | DRSC01050 | inactive |
| Toll-7 | DRSC07563 | inactive |
| Hmg-2 (High mobility group protein 2) | DRSC04554 | inactive |
| Cipc (Clock interacting protein circadian) | DRSC14898 | inactive |
| Cipc (Clock interacting protein circadian) | DRSC14900 | inactive |
| Jhbp15 (Juvenile hormone binding protein 15) | DRSC15217 | inactive |
| AttB (Attacin-B) | DRSC06734 | inactive |
| CG9121 | DRSC03142 | inactive |
| Tim17a1 | DRSC14184 | inactive |
| CG30394 | DRSC04074 | inactive |
| CG30394 | DRSC04260 | inactive |
| SdhAL (Succinate dehydrogenase, subunit A (flavoprotein)-like) | DRSC10539 | inactive |
| CG9782 | DRSC19145 | inactive |
| CG9782 | DRSC20209 | inactive |
| CG13331 | DRSC06366 | inactive |
| CG42789 | DRSC13793 | inactive |
| MBD-like (Methyl-CpG binding domain protein-like) | DRSC16996 | inactive |
| Obp50e (Odorant-binding protein 50e) | DRSC06434 | inactive |
| CG5861 | DRSC02907 | inactive |
| DCP2 (Decapping protein 2) | DRSC10597 | inactive |
| RpL31 (Ribosomal protein L31) | DRSC06716 | inactive |
| CG9030 | DRSC20139 | inactive |
| Vps16A (Vacuolar protein sorting 16A) | DRSC16422 | inactive |
| Ctns (Cystinosin) | DRSC15175 | inactive |
| Lasp | DRSC10379 | inactive |
| sgg (shaggy) | DRSC17228 | inactive |
| sgg (shaggy) | DRSC17722 | inactive |
| sgg (shaggy) | DRSC18832 | inactive |

Entries listed so far whose gene name begins with T or t (2):
| target | amplicon | Call |
| --- | --- | --- |
| Toll-7 | DRSC07563 | inactive |
| Tim17a1 | DRSC14184 | inactive |

The results go on:
| target | amplicon | Call |
| --- | --- | --- |
| CG3088 | DRSC10352 | inactive |
| CG13659 | DRSC14660 | inactive |
| CG32457 | DRSC11596 | inactive |
| CG32457 | DRSC21722 | inactive |
| Gr93a (Gustatory receptor 93a) | DRSC14593 | inactive |
| pk (prickle) | DRSC06178 | inactive |
| pk (prickle) | DRSC07664 | inactive |
| pk (prickle) | DRSC22156 | inactive |
| T3dh + pgc | DRSC04659 | inactive |
| Ir56d (Ionotropic receptor 56d) | DRSC06590 | inactive |
| Ent2 (Equilibrative nucleoside transporter 2) | DRSC02124 | inactive |
| CG6441 | DRSC02957 | inactive |
| whd (withered) | DRSC07351 | inactive |
| CG13538 | DRSC04180 | inactive |
| CG8419 | DRSC03087 | inactive |
| frma (fra mauro) | DRSC18297 | inactive |
| qkr58E-2 (quaking related 58E-2) | DRSC04710 | inactive |
| Nnf1a | DRSC06394 | inactive |
| CG5793 | DRSC15874 | inactive |
| Brd8 (Bromodomain containing 8) | DRSC14866 | inactive |
| CG2065 | DRSC06813 | inactive |
| CG2065 | DRSC21328 | inactive |
| CG9297 | DRSC16469 | inactive |
| CG4168 | DRSC01446 | inactive |
| CG4168 | DRSC01447 | active |
| CG4168 | DRSC01933 | inactive |
| CG4168 | DRSC21319 | inactive |
| CG4168 | DRSC22789 | inactive |
| ppk16 (pickpocket 16) | DRSC02736 | inactive |
| ND-19 (NADH dehydrogenase (ubiquinone) 19 kDa subunit) | DRSC04404 | inactive |
| cyst (cysts) | DRSC02023 | inactive |
| CG4270 | DRSC00648 | inactive |
| DppIII (Dipeptidyl aminopeptidase III) | DRSC16241 | inactive |
| scramb1 (scramblase 1) | DRSC09724 | inactive |
| scramb1 (scramblase 1) | DRSC10667 | inactive |
| scramb1 (scramblase 1) | DRSC10668 | inactive |
| Dtwd2 (DTW domain containing 2) | DRSC12501 | inactive |
| CG11563 | DRSC14327 | inactive |
| CG17564 | DRSC02626 | inactive |
| CG1671 | DRSC06617 | inactive |
| Pep (Protein on ecdysone puffs) | DRSC11252 | inactive |
| CG12236 | DRSC17830 | inactive |
| CG12236 | DRSC17831 | inactive |
| CG32473 | DRSC14352 | inactive |
| CG32473 | DRSC16446 | inactive |
| CG6614 | DRSC02974 | inactive |
| Mtpbeta (Mitochondrial trifunctional protein beta subunit) | DRSC04663 | inactive |
| Rpn3 (Regulatory particle non-ATPase 3) | DRSC03318 | inactive |
| VhaM9.7-d (Vacuolar H[+] ATPase M9.7 subunit d) | DRSC15028 | inactive |
| HisT (Histamine transporter) | DRSC05051 | inactive |
| HisT (Histamine transporter) | DRSC05052 | inactive |
| HisT (Histamine transporter) | DRSC06405 | active |
| kumpel (kin of rumpel) | DRSC14883 | inactive |
| kumpel (kin of rumpel) | DRSC16459 | inactive |
| kumpel (kin of rumpel) | DRSC16460 | inactive |
| kumpel (kin of rumpel) | DRSC16461 | inactive |
| kumpel (kin of rumpel) | DRSC16462 | inactive |
| kumpel (kin of rumpel) | DRSC16463 | inactive |
| dnr1 (defense repressor 1) | DRSC03948 | inactive |
| dnr1 (defense repressor 1) | DRSC04122 | inactive |
| CG13739 | DRSC06410 | inactive |
| Doc3 (Dorsocross3) | DRSC10480 | inactive |
| CG7448 (retired record) | DRSC11828 | inactive |
| CG7448 (retired record) | DRSC22485 | inactive |
| SWIP (Strumpellin and WASH-interacting protein) | DRSC19540 | inactive |
| CG12766 | DRSC08295 | inactive |
| Crtc (CREB-regulated transcription coactivator) | DRSC10578 | inactive |
| Vta1 (Vesicle trafficking 1) | DRSC08604 | inactive |
| Vta1 (Vesicle trafficking 1) | DRSC22848 | inactive |
| Tektin-C (Tektin C) | DRSC09741 | inactive |
